Measurements from patent US9750761B2, “LDH inhibitors as treatment for fibrosis and fibrotic-related disorders” (University of Rochester, priority 2014, dated 2017).
For at least one compound, name, drawing or mass did not settle the structure.

Experiments:
human lung fibroblasts = assay: Seahorse bioassay, extracellular acidification rate; assay type: cell-based; conditions: TGF-β stimulated, 1, 5, or 10 mM gossypol
[1] = test system: fibrotic primary human lung fibroblasts; assay: TGF-β induced myofibroblast differentiation in fibrotic (IPF donor) primary human lung fibroblasts; assay type: cell-based; conditions: fibroblasts from donors with pulmonary fibrosis, 1 ng/mL TGF-β, 1, 5, or 10 mM gossypol, 72 hours
[2] = test system: bleomycin-induced pulmonary fibrosis; assay: Bleomycin-induced pulmonary fibrosis model, day 7, intra-peritoneal dosing (lung mRNA, BALF cells); assay type: in vivo, C57BL6 mice
[3] = test system: bleomycin-induced pulmonary fibrosis; assay: Bleomycin-induced pulmonary fibrosis model, day 21, subcutaneous dosing (hydroxyproline, trichrome); assay type: in vivo, C57BL6 mice
[4] = test system: primary human lung fibroblasts; assay: TGF-β induced extracellular matrix generation (Col1A1, Col3A1 qRT-PCR, fibronectin Western blot); assay type: cell-based; conditions: 1 ng/mL TGF-β, 1, 5, or 10 mM gossypol, 24 hours
[5] = test system: primary human lung fibroblasts; assay: Lactate assay in fibroblast supernatants; assay type: cell-based; conditions: with and without 1 ng/mL TGF-β, 1, 5, or 10 mM gossypol, 72 hours
[6] = test system: primary human lung fibroblasts; assay: Soluble collagen slot blot after irradiation; assay type: cell-based; conditions: gossypol pre-treatment, 7 Gy
[7] = test system: primary human lung fibroblasts; assay: Radiation-induced myofibroblast differentiation (α-SMA, LDHA Western blot); assay type: cell-based
active TGF-β = assay: TGF-β bioactivity assay (mink lung epithelial cell bioassay on fibroblast conditioned medium); assay type: cell-based, human; conditions: fibroblasts 72 hours with 1 ng/mL TGF-β and/or 1, 5, or 10 mM gossypol
[8] = test system: primary human lung fibroblasts; assay: TGF-β induced myofibroblast differentiation in normal primary human lung fibroblasts (αSMA, calponin Western blot, immunofluorescence); assay type: cell-based
LDH = LDH activity assay in fibroblast protein lysates (spectrophotometric NADH extinction); assay type: biochemical, human; conditions: lysates of fibroblasts treated with TGF-β 72 hours; gossypol 1, 5, or 10 mM added to lysate
primary lung fibroblasts = conditions: 5 mM gossypol, 72 hours
[9] = bleomycin, gossypol 10 or 25 mg/kg daily i.p.
[10] = gossypol 10 mg/kg or 25 mg/kg daily i.p.
[11] = normal fibroblasts, 1 ng/mL TGF-β, 1, 5, or 10 mM gossypol, 72 hours

## Cc1cc2c(C(C)C)c(O)c(O)c(C=O)c2c(O)c1-c1c(C)cc2c(C(C)C)c(O)c(O)c(C=O)c2c1O [gossypol]
Human lung fibroblasts
  extracellular acidification rate: significantly inhibited TGF-β stimulated extracellular acidification
[1]
  calponin expression (Western blot): inhibited αSMA (FIGS. 2A-2B) and calponin (FIGS. 2C-2D) expression in fibrotic primary human lung fibroblasts in a dose dependent manner
  αSMA expression (Western blot): inhibited αSMA (FIGS. 2A-2B) and calponin (FIGS. 2C-2D) expression in fibrotic primary human lung fibroblasts in a dose dependent manner
[2]; [9]
  Col1A1 mRNA expression in whole lung tissue: significantly reduced Col1A1 mRNA expression
  FN mRNA expression in whole lung tissue: trend toward a reduction in bleomycin-induced FN mRNA expression
[2]; [10]
  BALF differential cell counts: nor did gossypol significantly alter the differential cell counts
  bleomycin-induced inflammatory cells in the BALF: Neither dose of gossypol significantly reduced bleomycin-induced inflammatory cells in the BALF
[3]; gossypol 5, 10, or 25 mg/kg daily subcutaneous
  bleomycin-induced hydroxyproline in whole lung tissue: significantly inhibited bleomycin-induced hydroxyproline expression at all of the doses tested
[3]; gossypol daily subcutaneous
  pulmonary fibrosis and collagen deposition (Trichrome stains): marked reduction in pulmonary fibrosis and collagen deposition
[4]
  Col1A1 mRNA expression (qRT-PCR): inhibited both Col1A1 and Col3A1 mRNA expression (FIGS. 3A-3B) and fibronectin expression (FIGS. 3C-3D) in a dose dependent manner
  Col3A1 mRNA expression (qRT-PCR): inhibited both Col1A1 and Col3A1 mRNA expression (FIGS. 3A-3B) and fibronectin expression (FIGS. 3C-3D) in a dose dependent manner
  fibronectin expression (Western blot): inhibited both Col1A1 and Col3A1 mRNA expression (FIGS. 3A-3B) and fibronectin expression (FIGS. 3C-3D) in a dose dependent manner
[5]
  lactic acid generation in supernatants: inhibited by all doses of gossypol in both TGF-β treated and untreated fibroblasts
[6]
  radiation-induced collagen production (soluble collagen 1): inhibited radiation-induced collagen production
[7]; gossypol 1 and 5 μM from 1 hr before 7 Gy, 5 days post radiation
  radiation induced myofibroblast differentiation (α-SMA): strongly prevented radiation induced myofibroblast differentiation in a dose-dependent manner
[7]; gossypol 1 and 5 μM, 0 Gy
  baseline α-SMA expression: reduced baseline levels in α-SMA expression
Active TGF-β
  activation of latent TGF-β (active TGF-β in conditioned medium): inhibited the activation of latent TGF-β in the fibroblast cultures
[8]; TGF-β, 10 mM gossypol
  αSMA immunofluorescent staining, actin filament morphology: change in morphology was prevented
[8]; [11]
  calponin expression (Western blot): inhibited both αSMA and calponin expression in a dose dependent manner
  αSMA expression (Western blot): inhibited both αSMA and calponin expression in a dose dependent manner
LDH
  LDH activity: inhibited LDH activity in protein lysates in a concentration dependent manner
Primary lung fibroblasts; gossypol alone (control siRNA), 1 ng/mL TGF-β
  TGF-β-stimulated myofibroblast differentiation (αSMA): significantly inhibited TGF-β-stimulated myofibroblast differentiation, with similar efficacy to LDH siRNA alone
Primary lung fibroblasts; without TGF-β stimulation
  background αSMA expression: reduced background levels of αSMA expression in cells without TGF-β stimulation
